# Experimental data reported in PubChem BioAssay AID1347075 (National Center for Advancing Translational Sciences (NCATS), 2019).
# Screen size: about 400,000 compounds; about 5,500 (1.4%) were called active. The inconclusive results got no clear call from the source; some entries with a clear call stand among them for comparison. Calls follow the shape of the dose curve; as a rule, active = well fitted cell-killing curve with a large enough effect; inconclusive = small, poorly fitted or top-dose-only effect, or effect the other way; inactive = flat fitted curve, though single readings scatter. Potencies beside an inconclusive call are fits to weak or partial responses and may not hold up.
# Test: qHTS assay for MDR1-selective chemotherapeutics: Primary screen using the parental adenocarcinoma cell KB-3-1; also: nearly all actives have a fitted effect of over 60% in size
# Settings: KB-3-1 viability, CellTiter-Glo ATP luminescence, 72 h; activity change, negative = cytotoxic: at 46.1 µM (top of the series)
# Summary of the method: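 Parental KB-3-1 adenocarcinoma cells in phenol-red-free DMEM with 10% FBS were pin-treated with compounds at several concentrations, incubated 72 h at 37 °C, and viability read by CellTiter-Glo luminescence; concentration-effect curves were fitted after normalization.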
# % is scaled to controls: 0 for no effect and ±100 for the full control effect; potency is read from the fitted curve at half-maximal effect.
SMILES,Potency,"activity change, negative = cytotoxic"
Cc1ccc(C(=O)Nc2cccc(Oc3ccccc3)c2)o1,inactive,–
O=C(Cc1cccs1)Nc1ccccc1-c1nc2ccccc2[nH]1,"inconclusive: 29.1 µM [cytotoxic, single point]",–
O=C(Nc1cc([N+](=O)[O-])ccc1N1CCCC1)c1ccco1,inactive,–
C=CCN(C(=O)c1cccc(S(=O)(=O)N2CCN(C)CC2)c1)c1nc(-c2ccccc2)cs1,"inconclusive: 29.1 µM [cytotoxic, single point]",–
CCCn1c(SCC(=O)NC(=O)NC(C)(C)C)n[nH]c1=O,inactive,–
CN1CCN(C=NC2=NN(c3cccc(C(F)(F)F)c3)CC2)CC1,"inconclusive: 20.6 µM [cytotoxic, partial curve]",–
Nc1nc(-c2ccccn2)nc(N)c1Cc1c(F)cccc1Cl,"inconclusive: 32.6 µM [cytotoxic, single point]",–
Cc1cc2c(cc1S(=O)(=O)C(C)CC(=O)NCc1ccco1)OCC(=O)N2 (stereo not drawn),"inconclusive: 5.8 µM [rising, partial curve, poor fit]",–
COc1ccc(C(C)(O)c2nc(-c3cc(F)cc(F)c3)cs2)cc1 (stereo not drawn),"inconclusive: 29.1 µM [cytotoxic, single point]",–
CCOc1ccccc1NC(=O)c1c(Br)cnn1C,"inconclusive: 23.1 µM [cytotoxic, single point]",–
Nc1c(C(=O)Nc2ccc3c(c2)OCCO3)nnn1CCc1ccccc1,active: 6.51 µM,–
COc1cccc(C(c2c(C)[nH]n(-c3ccccc3)c2=O)c2c(C)[nH]n(-c3ccccc3)c2=O)c1O,inactive,–
COc1ccccc1C1=NN(C(=S)Nc2ccccc2)C(c2ccco2)C1 (stereo not drawn),"inconclusive: 25.9 µM [cytotoxic, single point]",–
O=C1c2cccc(NCCNCCO)c2C(=O)c2cccc(NCCNCCO)c21,"inconclusive: 2.31 µM [cytotoxic, partial curve, poor fit]",–
CC(C)Oc1cccc(C2CC(=O)Nc3cc4c(cc32)OCO4)c1 (stereo not drawn),active: 3.66 µM,–
O=C(CCn1cnnn1)Nc1cc(C(F)(F)F)cc(C(F)(F)F)c1,"inconclusive: 18.4 µM [cytotoxic, single point]",–
CCCCSCCCNC(=O)c1cn(C)c2ccc(S(=O)(=O)N3CCCCCC3)cc2c1=O,"inconclusive: 29.1 µM [rising, single point]",–
O=C(CS(=O)c1ccc(C(F)(F)F)cc1[N+](=O)[O-])Oc1ccc(Cl)cc1 (stereo not drawn),"inconclusive: 29.1 µM [cytotoxic, single point]",–
CNC(=O)C(=O)Nc1nc(C23CC4CC(CC(C4)C2)C3)cs1,inactive,–
COc1ccc(NC(=O)Nc2nccs2)cc1,"inconclusive: 29.1 µM [cytotoxic, single point]",–
CCOc1ccc(NS(=O)(=O)c2ccc3c(c2)N(C(C)=O)CCS3)cc1,inactive,–
CCc1cc(=S)n2c([nH]c3ccccc32)c1C#N,"inconclusive: 20.6 µM [cytotoxic, single point]",–
CCOC(=O)C(Cc1ccccc1)NC(=O)CCc1c(C)nc2ncnn2c1C (stereo not drawn),inactive,–
CCOc1cc(CNc2ccc(N3CCCC3)cc2)cc(Cl)c1OC,"inconclusive: 23.1 µM [cytotoxic, single point]",–
Nc1c(C(=O)O)sc2nc(-c3ccccc3)cc(-c3ccc(F)cc3)c12,–,inconclusive: 0%

SMILES,Potency,"activity change, negative = cytotoxic"
Cc1ccc(NC(=O)COc2ccccc2CNC(C)(C)CC(C)(C)C)cc1,"inconclusive: 731 µM [cytotoxic, full curve, poor fit]",–
Cc1cccc(NC(=O)c2sc3nc4c(cc3c2N)CN(C(C)C)CC4)c1,"inconclusive: 29.1 µM [cytotoxic, single point]",–
Cc1nn(-c2ccccc2)c(Cl)c1/C=N/Nc1nc2ccccc2[nH]1,"inconclusive: 16.4 µM [cytotoxic, single point]",–
Cc1ccc(C)c(-n2cc(CNC(C)Cn3cncn3)c(-c3ccccc3)n2)c1 (stereo not drawn),inactive,–
Cc1cccc(N2CCN(C(=O)c3[nH]c(C(F)(F)F)nc3-c3ccccc3)CC2)c1C,active: 2.31 µM,–
Cc1cc(C(=O)NC2CCCc3c2cnn3-c2ccc(C)c(C)c2)n(C)n1 (stereo not drawn),"inconclusive: 6.51 µM [cytotoxic, partial curve, poor fit]",–
COc1cc(C2c3cc4c(cc3CC3COC(=O)N32)OCO4)cc(OC)c1OC (stereo not drawn),active: 0.731 µM,–
CC(C)(CO)NCc1c(OCc2ccc(Cl)cc2)ccc2ccccc12,active: 23.1 µM,–
COc1cc2cc(C)c(SCC(=O)N3CCOCC3)nc2cc1OC,inactive,–
COc1ccccc1NC(=O)Nc1cnccn1,"inconclusive: 8.2 µM [cytotoxic, partial curve]",–
COc1ccc([C@H]2C[C@H](n3cc(C4CC4)nn3)[C@@H](O)CN2CC2CCCCC2)cc1,"inconclusive: 20.6 µM [cytotoxic, single point]",–
O=c1[nH]c(CCl)nc2cc(-c3ccc(Cl)cc3)sc12,active: 9.2 µM,–
COc1ccc(CC(=O)N/N=C/c2cc(Br)cs2)cc1OC,inactive,–
Cn1c(=O)c2c(nc(SCCN3CCOCC3)n2Cc2cccc3ccccc23)n(C)c1=O,inactive,–
C/C(Cl)=C/Cn1c(=O)c2c(nc(Br)n2Cc2ccccc2)n(C)c1=O,inactive,–
C[C@H]1C(c2ccc(F)cc2)=NN(c2ccccc2)[C@@H]1CO,inactive,–
CCC(C(=O)Nc1cc(C)nn1-c1nc(C)cc(C)n1)c1ccccc1 (stereo not drawn),"inconclusive: 23.1 µM [cytotoxic, single point]",–
CCC(=O)Nc1nc2ccccc2n1Cc1ccccc1Cl,"inconclusive: 14.6 µM [cytotoxic, partial curve]",–
CCOc1ccc2nc(N3CCCC(C(=O)Nc4ccc(OC)c(Cl)c4)C3)sc2c1 (stereo not drawn),inactive,–
COC(=O)C1(C(O)C(=O)c2ccc(C)cc2C)CCCCC1 (stereo not drawn),inactive,–
CC(C)=CC(=O)OCC(=O)Nc1cccc([N+](=O)[O-])c1,"inconclusive: 29.1 µM [rising, single point]",–
O=C(NNc1nc(-c2ccc(F)cc2)cs1)c1ccccc1,"inconclusive: 8.2 µM [cytotoxic, partial curve, poor fit]",–
CN(C)S(=O)(=O)c1ccc2c(c1)N(CC(=O)Nc1ccc(F)cc1)C(=O)CS2,inactive,–
CCCOC(=O)C1C2C=CC(C3CC23)C1C(=O)OCC(=O)c1ccccc1 (stereo not drawn),"inconclusive: 20.6 µM [cytotoxic, single point]",–
COc1ccccc1NC(=O)C1CCN(S(=O)(=O)c2ccc3[nH]c4c(c3c2)CCCCC4)CC1,inactive,–

SMILES,Potency,"activity change, negative = cytotoxic"
Cc1cccc(Nc2nnc(SCC(=O)N(C)C3CCS(=O)(=O)C3)s2)c1C (stereo not drawn),inactive,–
CCOc1ccc(CCn2c(-c3ccco3)nc3ccccc3c2=O)cc1OCC,"inconclusive: 11.6 µM [cytotoxic, partial curve, poor fit]",–
CCCNC(=O)C(=O)Nc1ccc2c(c1)N(S(=O)(=O)c1cccs1)CCC2,"inconclusive: 2.59 µM [cytotoxic, full curve]",–
Cc1cc(=O)nc2c3ccccc3n(CC(=O)NCCCN3CCCC3=O)n12,"inconclusive: 29.1 µM [cytotoxic, single point]",–
Cc1ccc(-c2n[nH]c(=S)n2C)cc1Cl,active: 4.11 µM,–
CC(C)Cn1c(CCCNC(=O)c2ccco2)nc2ccccc21,inactive,–
O=C(Nc1ccon1)c1nc[nH]c1C(=O)NCc1ccccc1,active: 5.8 µM,–
Cc1ccc2nc(C3CCN(S(=O)(=O)c4ccc5ccccc5c4)CC3)[nH]c2c1,"inconclusive: 14.6 µM [cytotoxic, partial curve, poor fit]",–
CCNC(=O)c1ccc2c(c1)C1C3CCC(C3)C1C(c1ccccc1)N2 (stereo not drawn),"inconclusive: 29.1 µM [cytotoxic, single point]",–
CC1(C)Cc2c(cnn2-c2ccccc2)C(NC(=O)c2ccc[n+]([O-])c2)C1 (stereo not drawn),inactive,–
COc1ccccc1-c1nnc2sc(-c3ccc(N(C)C)cc3)nn12,active: 0.291 µM,–
CC(Oc1ccc(F)cc1)c1nnc(SCC(=O)N(c2ccccc2)C2CCS(=O)(=O)C2)o1 (stereo not drawn),"inconclusive: 18.4 µM [cytotoxic, single point]",–
CC(=O)c1c(N2CCN(Cc3ccccc3)CC2)nc(=S)n(-c2ccccc2)c1C,inactive,–
COC(=O)c1sc(N2C(=O)c3oc4ccccc4c(=O)c3C2c2ccc(O)cc2)nc1C (stereo not drawn),"inconclusive: 20.6 µM [rising, single point]",–
O=C(CN(C1CCCCC1)S(=O)(=O)c1ccc(F)cc1)Nc1ccc2c(c1)OCO2,"inconclusive: 16.4 µM [cytotoxic, single point]",–
N#CCc1ccc(NC(=O)Nc2cccc(Cl)c2)cc1,"inconclusive: 29.1 µM [cytotoxic, single point]",–
O=C(CSC1=NCCS1)Nc1ccnc2ccccc12,"inconclusive: 18.4 µM [cytotoxic, single point]",–
COc1ccc(CCNC(=O)C2CCCN(Cc3nc(-c4ccccc4C)oc3C)C2)cc1OC (stereo not drawn),inactive,–
Cc1ccc[n+](/C(C(=S)NCc2ccco2)=C(/[O-])c2ccccc2Cl)c1,"inconclusive: 25.9 µM [rising, single point]",–
O=C(Nc1c(Cl)cc([N+](=O)[O-])cc1Cl)c1cc(Cl)ccc1O,active: 0.731 µM,–
COc1ccc(NC(=S)NC(NC(=O)c2cccc(C)c2)C(Cl)(Cl)Cl)c([N+](=O)[O-])c1 (stereo not drawn),"inconclusive: 14.6 µM [cytotoxic, partial curve, poor fit]",–
CCOc1cccc(C(=O)Nc2cccc(-c3nnc(-c4ccc(C)cc4)o3)c2)c1,active: 13 µM,–
CCOC(=O)CNC(=O)C1(/C=C/c2ccccc2)CC(=O)N1c1ccc(C)cc1 (stereo not drawn),"inconclusive: 29.1 µM [cytotoxic, single point]",–

# Gathered by group, those above containing a cyano group
SMILES,Potency,"activity change, negative = cytotoxic"
CCc1cc(=S)n2c([nH]c3ccccc32)c1C#N,"inconclusive: 20.6 µM [cytotoxic, single point]",–
N#CCc1ccc(NC(=O)Nc2cccc(Cl)c2)cc1,"inconclusive: 29.1 µM [cytotoxic, single point]",–

# Arranged by SMILES length (high to low): part of the list above
SMILES,Potency,"activity change, negative = cytotoxic"
COC(=O)c1sc(N2C(=O)c3oc4ccccc4c(=O)c3C2c2ccc(O)cc2)nc1C (stereo not drawn),"inconclusive: 20.6 µM [rising, single point]",–
Cc1cccc(Nc2nnc(SCC(=O)N(C)C3CCS(=O)(=O)C3)s2)c1C (stereo not drawn),inactive,–
Cc1ccc(-c2n[nH]c(=S)n2C)cc1Cl,active: 4.11 µM,–
